Experimental data: PubChem BioAssay AID1671190 (National Center for Advancing Translational Sciences (NCATS), 2021)
The campaign covered roughly 580,000 compounds. About 6,100 (1.1%) were called active. The inconclusive results got no clear call from the source; some entries with a clear call stand among them for comparison. Calls come from the whole dose curve; as a rule, active = well fitted inhibition curve with a large enough effect; inconclusive = small, poorly fitted or top-dose-only effect, or another doubt; inactive = no such curve, though single readings can be large or run the other way. Potencies beside an inconclusive call are fits to weak or partial responses and may not hold up.

By UniProt entry, the sequences of proteins in these tests, tags left out. Where a name states a change or a piece, a line headed by the entry shows the natural chain unless it says otherwise.
UniProt P18054: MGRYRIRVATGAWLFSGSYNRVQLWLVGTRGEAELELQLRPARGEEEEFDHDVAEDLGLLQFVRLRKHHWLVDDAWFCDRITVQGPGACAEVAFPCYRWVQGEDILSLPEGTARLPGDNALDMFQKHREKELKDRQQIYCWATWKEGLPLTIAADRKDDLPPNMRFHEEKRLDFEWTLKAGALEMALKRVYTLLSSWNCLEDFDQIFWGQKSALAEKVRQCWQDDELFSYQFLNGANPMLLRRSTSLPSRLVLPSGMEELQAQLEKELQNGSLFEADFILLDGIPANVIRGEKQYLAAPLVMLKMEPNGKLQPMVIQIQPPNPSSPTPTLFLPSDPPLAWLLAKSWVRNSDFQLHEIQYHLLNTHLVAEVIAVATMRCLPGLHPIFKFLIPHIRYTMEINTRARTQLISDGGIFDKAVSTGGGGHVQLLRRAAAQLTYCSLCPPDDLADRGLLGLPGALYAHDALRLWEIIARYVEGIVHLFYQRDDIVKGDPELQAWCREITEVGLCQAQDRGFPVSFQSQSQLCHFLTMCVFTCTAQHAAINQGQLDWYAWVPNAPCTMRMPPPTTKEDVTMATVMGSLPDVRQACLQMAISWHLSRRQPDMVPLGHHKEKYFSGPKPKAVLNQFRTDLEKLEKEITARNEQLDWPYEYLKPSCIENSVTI

The compounds below were run against Polyunsaturated fatty acid lipoxygenase ALOX12 (Homo sapiens) (UniProt P18054) (assay: Primary qHTS assay for inhibitors of human arachidonate 12S-lipoxygenase (ALOX12): Round 2). Conditions: purified 12hLO, xylenol orange hydroperoxide absorbance; activity change, negative = inhibition: at 108 µM (top of the series) unless noted.
How it was run: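 Hydroperoxide product was detected by ferrous iron/xylenol orange as the 573 to 405 nm absorbance ratio. Arachidonic acid at 40 uM (final) was turned over for 30 min at room temperature by 150 nM human 12hLO, pH 7.0 Hepes buffer, after 15 min compound preincubation.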
% is set by controls: 0 for no effect and ±100 for the full control effect; potency is the fitted concentration of half-maximal effect.

Question: `CC(=O)c1ccc(F)c(-c2cc(C)cc3c2OC(CNC(=O)C[C@@H]2C[C@@H](C)NC(=S)N2)C3)c1` (stereo partly drawn) was tested. Which Potency did it give?
Answer: Its Potency is inconclusive: 44.7 µM [inhibitor, partial curve, poor fit].

Question: For `O=C(NCC1CC1)[C@]1(C(F)(F)F)C[C@H](CCC2CCCCC2)CCCO1`, which Potency is on record?
Answer: The Potency was inconclusive: 2 µM [inhibitor, partial curve, poor fit].

Question: For `c1ccc(-c2nc(-c3ccncc3)no2)c(OC2CCNC2)c1` (stereo not drawn), which Potency is on record?
Answer: Its Potency is inconclusive: 7.94 µM [inhibitor, partial curve, poor fit].

Question: Which Potency does the source give for `CC(=O)c1ccc(NC(=O)N2C[C@@H]3C[C@H](C2)c2ccc(NC(=O)Nc4cccc(C#N)c4)c(=O)n2C3)cc1` here?
Answer: The Potency was inconclusive: 20 µM [inhibitor, full curve].

Question: With `S=c1[nH]nc(C2CCCCC2)n1/N=C/c1ccccc1Br` as the compound, how does the Potency read?
Answer: Its Potency is inconclusive: 44.7 µM [inhibitor, partial curve, poor fit].

Question: Which “activity change, negative = inhibition” value does the source give for `O=C(Nc1ccc2c(c1)OCO2)C1CC(=O)N(c2ccc3c(c2)OCCO3)C1` (stereo not drawn) here?
Answer: Its value is inactive: -1.41%.

Question: How did the Potency turn out when `CCC(C)Sc1c(C(C)C)cnc2c1c(=O)n(C)c(=O)n2C` (stereo not drawn) was run?
Answer: Its Potency is inconclusive: 17.8 µM [inhibitor, full curve, poor fit].

Question: How did the Potency turn out when `O=C(Nc1cccc(Cl)c1)Nc1csc([N+](=O)[O-])c1` was run?
Answer: The Potency was inconclusive: 112 µM [inhibitor, single point].

Question: How did the “activity change, negative = inhibition” value turn out when `CC1CCCCN1C(=O)c1ccc(COc2ccc([N+](=O)[O-])cc2)o1` (stereo not drawn) was run?
Answer: Its value is inactive: 46.4%.

Question: Which Potency does the source give for `CCc1nnc(NS(=O)(=O)c2ccc(Nc3ccc4nonc4c3[N+](=O)[O-])cc2)s1` here?
Answer: The Potency was inconclusive: 2.24 µM [inhibitor, full curve, poor fit].

Question: `Cc1ccc(C(=O)N2CCC3(CC2)NC(=O)N(c2ccccc2)N3)cc1C` was tested. Which Potency did it give?
Answer: The Potency was inconclusive: 8.91 µM [inhibitor, full curve, poor fit].

Question: `CN1C(=C=Cc2cc(I)c(O)c(I)c2)C(C)(C)c2ccccc21` was tested. Which Potency did it give?
Answer: The Potency was inconclusive: 50.1 µM.

Question: `O=C(Nc1cccc(-c2nc3ccccc3o2)c1)c1ccccc1Br` was tested. Which “activity change, negative = inhibition” value did it give?
Answer: Its value is inactive: -5.74%.

Question: Which Potency does the source give for `COc1ccc(-n2nc(C3CCN(Cc4ccc(C)cc4)CC3)[nH]c2=O)cc1` here?
Answer: The Potency was inconclusive: 39.8 µM [inhibitor, full curve].

Question: With `O=c1[nH]cnc2c1N1CCC2CC1` as the compound, how does the Potency read?
Answer: The Potency was inconclusive: 4.47 µM [inhibitor, full curve, poor fit].

Question: `Cc1cccc(C(C)C)c1NC(=O)c1c(-c2ccccc2)noc1C` was tested. Which “activity change, negative = inhibition” value did it give?
Answer: Its value is inactive: 25%.

Question: How did the “activity change, negative = inhibition” value turn out when `Cc1ccc(CNC(=O)CCC2CCCN(Cc3cccc4ncccc34)C2)o1` (stereo not drawn) was run?
Answer: The value was inactive: -6.82%.

Question: With `Cc1cc2c(cc1C)-n1nnnc1C(N1CCN(c3ccccc3F)CC1)C(=O)N2` (stereo not drawn) as the compound, how does the activity change, negative = inhibition read?
Answer: Its activity change, negative = inhibition is inconclusive: -43.5% [inhibitor].
